The supplement of paper PMC10663445
Structures can show the parent of a compound that is named as a salt. Some of the results follow. Most values come without repeats; read them as rough.

System: hsa-miR-132-3p
Test: miR-132-3p level in NGN2-iNs after compound treatment (TMM-normalised, ComBat batch-corrected) (batch-corrected normalised expression (arbitrary units)); higher = higher miR-132-3p expression
Details: 10 µM; 24 h; human iPSC-derived NGN2 neurons (BR43)

Row | SMILES | miR-132-3p level in NGN2-iNs
1 | Nc1ccn([C@@H]2O[C@H](CO)[C@@H](O)C2(F)F)c(=O)n1 [Gemcitabine] | -0.54
2 | COc1ccccc1N1CCN(CCN(C(=O)C2CCCCC2)c2ccccn2)CC1 | -1.14
3 | CN(C)CCN(Cc1ccccc1)c1ccccn1 [Tripelennamine HCl] | -0.933
4 | CC1CNc2c(cccc2S(=O)(=O)N[C@@H](CCCNC(=N)N)C(=O)N2CC[C@@H](C)C[C@@H]2C(=O)O)C1 (some centres not stated) [Argatroban] | -0.763
5 | CO[C@H]1C[C@@H]2CC[C@@H](C)[C@@](O)(O2)C(=O)C(=O)N2CCCC[C@H]2C(=O)O[C@H]([C@H](C)C[C@@H]2CC[C@@H](OCCO)[C@H](OC)C2)CC(=O)[C@H](C)/C=C(\C)[C@@H](O)[C@@H](OC)C(=O)[C@H](C)C[C@H](C)/C=C/C=C/C=C/1C [Everolimus (RAD001)] | -0.398
6 | Cc1cc(C)c(Nc2ccnc(Nc3ccc(C#N)cc3)n2)c(C)c1 [Dapivirine (TMC120)] | -0.472
7 | Cc1cc(/C=C2/SC(=S)NC2=O)c(C)n1-c1cccnc1 [Optovin] | -0.789
8 | Nc1ncnc2c1ncn2[C@@H]1O[C@H](CO)[C@@H](O)[C@H]1O [Adenosine] | -0.325
9 | CCCN(CCC)S(=O)(=O)c1ccc(C(=O)O)cc1 [Probenecid] | -1.18
10 | CCNC(=O)Nc1ccc(-c2nc3c(c(N4CCOC[C@@H]4C)n2)CCN(C2COC2)C3)cc1 | 0.252
11 | CC(NC(=O)Cc1cc(F)cc(F)c1)C(=O)NC(C(=O)OC(C)(C)C)c1ccccc1 (configuration not stated) | -1.14
12 | C[C@]12CC[C@@H]3c4ccc(O)cc4CC[C@H]3[C@@H]1CC[C@@H]2O [Estradiol] | 1.88
13 | CC(C)c1ccc(NC(=O)Cn2cnc3c2c(=O)n(C)c(=O)n3C)cc1 | 2.47
14 | CCNC(=O)c1[nH]nc(-c2cc(Cl)c(O)cc2O)c1-c1ccc(OC)cc1 | -0.895
15 | CCOC(=O)CCNc1cc(N2CCc3ccccc3CC2)nc(-c2ccccn2)n1 | -0.969
16 | Cc1cc(=O)oc2c(C=O)c(O)ccc12 | -0.466
17 | CN(C)CCOC(c1ccccc1)c1ccccc1 [Diphenhydramine HCl] | 1.21
18 | CC(=O)[C@H]1CC[C@H]2[C@@H]3CCC4=CC(=O)CC[C@]4(C)[C@H]3CC[C@]12C [Progesterone] | 0.213
19 | COc1ccc2ccc(=O)oc2c1CC=C(C)C [Osthole] | -0.347
20 | O=C(Nc1nc2cccc(-c3ccc(CN4CCS(=O)(=O)CC4)cc3)n2n1)C1CC1 [Filgotinib (GLPG0634)] | 0.385
21 | N=C(N)NS(=O)(=O)c1ccc(N)cc1 [Sulfaguanidine] | -0.612
22 | CC(=O)Oc1ccccc1C(=O)O [Aspirin] | -1.39

Part of the list above in another layout.
Row	SMILES	miR-132-3p level in NGN2-iNs
11	CC(NC(=O)Cc1cc(F)cc(F)c1)C(=O)NC(C(=O)OC(C)(C)C)c1ccccc1 (configuration not stated)	-1.14
12	C[C@]12CC[C@@H]3c4ccc(O)cc4CC[C@H]3[C@@H]1CC[C@@H]2O [Estradiol]	1.88
13	CC(C)c1ccc(NC(=O)Cn2cnc3c2c(=O)n(C)c(=O)n3C)cc1	2.47
14	CCNC(=O)c1[nH]nc(-c2cc(Cl)c(O)cc2O)c1-c1ccc(OC)cc1	-0.895
15	CCOC(=O)CCNc1cc(N2CCc3ccccc3CC2)nc(-c2ccccn2)n1	-0.969
16	Cc1cc(=O)oc2c(C=O)c(O)ccc12	-0.466
